# Measurements: the supplement of paper PMC8728848
# The list shows a part of the results.
# B1: DCL-1 (Homo sapiens), Q8IX05 (protein)
# chain: MLRAALPALLLPLLGLAAAAVADCPSSTWIQFQDSCYIFLQEAIKVESIEDVRNQCTDHGADMISIHNEEENAFILDTLKKQWKGPDDILLGMFYDTDDASFKWFDNSNMTFDKWTDQDDDEDLVDTCAFLHIKTGEWKKGNCEVSSVEGTLCKTAIPYKRKYLSDNHILISALVIASTVILTVLGAIIWFLYKKHSDSRFTTVFSTAPQSPYNEDCVLVVGEENEYPVQFD
# Key:
# Assay in all cases: glycan array binding signal (z-score within array); higher = stronger binding
# Conditions in all cases: glycan notation: IUPAC condensed, linker removed
# [1] = target: Fuc(a1-2)Gal(b1-4)[Fuc(a1-3)]GlcNAc
# Summary of the method: (§1)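 Glycan array binding is given as a within-array Z-score, which can be read as non-binding when negative. The arrays, 3228 of them, came from the Consortium for Functional Glycomics database and were retained only where the protein sequence was available. Z-scores were averaged across arrays of the same protein sequence at different concentrations or buffers and across linkers.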
# [2] = target: Fuc(a1-2)Gal(b1-4)[Fuc(a1-3)]GlcNAc(b1-2)Man(a1-3)[Fuc(a1-2)Gal(b1-4)[Fuc(a1-3)]GlcNAc(b1-2)Man(a1-6)]Man(b1-4)GlcNAc(b1-4)GlcNAc
# Summary of the method: as §1
# [3] = target: Fuc(a1-2)Gal(b1-4)[Fuc(a1-3)]GlcNAc(b1-2)[Fuc(a1-2)Gal(b1-4)[Fuc(a1-3)]GlcNAc(b1-4)]Man(a1-3)[Fuc(a1-2)Gal(b1-4)[Fuc(a1-3)]GlcNAc(b1-2)Man(a1-6)]Man(b1-4)GlcNAc(b1-4)GlcNAc
# Summary of the method: as §1
# [4] = target: Fuc(a1-2)Gal(b1-4)[Fuc(a1-3)]GlcNAc(b1-3)Gal(b1-4)[Fuc(a1-3)]GlcNAc
# Summary of the method: as §1
# [5] = target: Fuc(a1-2)Gal(b1-4)[Fuc(a1-3)]GlcNAc(b1-3)Gal(b1-4)[Fuc(a1-3)]GlcNAc(b1-3)Gal(b1-4)[Fuc(a1-3)]GlcNAc
# Summary of the method: as §1
# [6] = target: Fuc(a1-2)Gal(b1-4)[Fuc(a1-3)]GlcNAc(b1-3)GalNAc
# Summary of the method: as §1
# [7] = target: Fuc(a1-2)Gal6S(b1-4)Glc
# Summary of the method: as §1
# [8] = target: Fuc(a1-2)Gal6S(b1-4)Glc6S
# Summary of the method: as §1
# [9] = target: Fuc(a1-2)Gal6S(b1-4)GlcNAc
# Summary of the method: as §1
# [10] = target: Fuc(a1-2)[Gal(a1-3)]Gal
# Summary of the method: as §1
# [11] = target: Fuc(a1-2)[Gal(a1-3)]Gal(b1-3)GalNAc
# Summary of the method: as §1
# [12] = target: Fuc(a1-2)[Gal(a1-3)]Gal(b1-3)GlcNAc
# Summary of the method: as §1
# [13] = target: Fuc(a1-2)[Gal(a1-3)]Gal(b1-3)GlcNAc(b1-2)Man(a1-3)[Fuc(a1-2)[Gal(a1-3)]Gal(b1-3)GlcNAc(b1-2)Man(a1-6)]Man(b1-4)GlcNAc(b1-4)GlcNAc
# Summary of the method: as §1
# [14] = target: Fuc(a1-2)[Gal(a1-3)]Gal(b1-3)GlcNAc(b1-2)Man(a1-3)[Fuc(a1-2)[Gal(a1-3)]Gal(b1-3)GlcNAc(b1-2)Man(a1-6)]Man(b1-4)GlcNAc(b1-4)[Fuc(a1-6)]GlcNAc
# Summary of the method: as §1
# [15] = target: Fuc(a1-2)[Gal(a1-3)]Gal(b1-3)GlcNAc(b1-3)GalNAc
# Summary of the method: as §1
# [16] = target: Fuc(a1-2)[Gal(a1-3)]Gal(b1-4)Glc
# Summary of the method: as §1
# [17] = target: Fuc(a1-2)[Gal(a1-3)]Gal(b1-4)GlcNAc
# Summary of the method: as §1
# [18] = target: Fuc(a1-2)[Gal(a1-3)]Gal(b1-4)GlcNAc(b1-2)Man(a1-3)[Fuc(a1-2)[Gal(a1-3)]Gal(b1-4)GlcNAc(b1-2)Man(a1-6)]Man(b1-4)GlcNAc(b1-4)GlcNAc
# Summary of the method: as §1
# [19] = target: Fuc(a1-2)[Gal(a1-3)]Gal(b1-4)GlcNAc(b1-2)Man(a1-3)[Fuc(a1-2)[Gal(a1-3)]Gal(b1-4)GlcNAc(b1-2)Man(a1-6)]Man(b1-4)GlcNAc(b1-4)[Fuc(a1-6)]GlcNAc
# Summary of the method: as §1
# [20] = target: Fuc(a1-2)[Gal(a1-3)]Gal(b1-4)GlcNAc(b1-3)GalNAc
# Summary of the method: as §1
# [21] = target: Fuc(a1-2)[Gal(a1-3)]Gal(b1-4)[Fuc(a1-3)]Glc
# Summary of the method: as §1
# [22] = target: Fuc(a1-2)[Gal(a1-3)]Gal(b1-4)[Fuc(a1-3)]GlcNAc
# Summary of the method: as §1
# [23] = target: Fuc(a1-2)[Gal(a1-3)]Gal(b1-4)[Fuc(a1-3)]GlcNAc(b1-3)GalNAc
# Summary of the method: as §1
# [24] = target: Fuc(a1-2)[Gal(a1-4)]Gal(b1-4)GlcNAc
# Summary of the method: as §1
# [25] = target: Fuc(a1-2)[GalNAc(a1-3)]Gal
# Summary of the method: as §1
# [26] = target: Fuc(a1-2)[GalNAc(a1-3)]Gal(b1-3)GalNAc(a1-3)[Fuc(a1-2)]Gal(b1-4)GlcNAc
# Summary of the method: as §1
# [27] = target: Fuc(a1-2)[GalNAc(a1-3)]Gal(b1-3)GlcNAc
# Summary of the method: as §1
# [28] = target: Fuc(a1-2)[GalNAc(a1-3)]Gal(b1-3)GlcNAc(b1-2)Man(a1-3)[Fuc(a1-2)[GalNAc(a1-3)]Gal(b1-3)GlcNAc(b1-2)Man(a1-6)]Man(b1-4)GlcNAc(b1-4)GlcNAc
# Summary of the method: as §1
# [29] = target: Fuc(a1-2)[GalNAc(a1-3)]Gal(b1-3)GlcNAc(b1-2)Man(a1-3)[Fuc(a1-2)[GalNAc(a1-3)]Gal(b1-3)GlcNAc(b1-2)Man(a1-6)]Man(b1-4)GlcNAc(b1-4)[Fuc(a1-6)]GlcNAc
# Summary of the method: as §1
# [30] = target: Fuc(a1-2)[GalNAc(a1-3)]Gal(b1-3)GlcNAc(b1-3)GalNAc
# Summary of the method: as §1
binder,measurement,setting,value
B1,glycan array binding signal (z-score),[1],0.133
same,glycan array binding signal (z-score),[2],0.932
same,glycan array binding signal (z-score),[3],-0.152
same,glycan array binding signal (z-score),[4],0.568
same,glycan array binding signal (z-score),[5],1.28
same,glycan array binding signal (z-score),[6],1.87
same,glycan array binding signal (z-score),[7],-0.711
same,glycan array binding signal (z-score),[8],1.32
same,glycan array binding signal (z-score),[9],-0.605
same,glycan array binding signal (z-score),[10],-0.695
same,glycan array binding signal (z-score),[11],-0.288
same,glycan array binding signal (z-score),[12],3.01
same,glycan array binding signal (z-score),[13],0.517
same,glycan array binding signal (z-score),[14],0.561
same,glycan array binding signal (z-score),[15],0.63
same,glycan array binding signal (z-score),[16],-1.1
same,glycan array binding signal (z-score),[17],-0.77
same,glycan array binding signal (z-score),[18],-0.901
same,glycan array binding signal (z-score),[19],-0.114
same,glycan array binding signal (z-score),[20],-0.439
same,glycan array binding signal (z-score),[21],0.686
same,glycan array binding signal (z-score),[22],1.17
same,glycan array binding signal (z-score),[23],-0.85
same,glycan array binding signal (z-score),[24],-0.25
same,glycan array binding signal (z-score),[25],0.519
same,glycan array binding signal (z-score),[26],-0.795
same,glycan array binding signal (z-score),[27],-0.401
same,glycan array binding signal (z-score),[28],-0.009
same,glycan array binding signal (z-score),[29],-0.151
same,glycan array binding signal (z-score),[30],-0.237

# Given bar-delimited: part of the list above
binder | measurement | setting | value
B1 | glycan array binding signal (z-score) | [1] | 0.133
same | glycan array binding signal (z-score) | [2] | 0.932
